The other results are listed elsewhere or left out.
Columns and labels:
Assay in all cases: log2 fold change, soluble protein after heating vs DMSO (PISA); higher = thermal stabilisation; K562 cells, 10 uM, 30 min; active = over 0.2 and 3.5 SD of the protein, either way, in both replicates (recomputed)
crizotinib = compound: C[C@@H](Oc1cc(-c2cnn(C3CCNCC3)c2)cnc1N)c1c(Cl)ccc(F)c1Cl [crizotinib]
Procedure, shortened: (§1)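 For each measurement, 10 μM compound was applied for 30 min to K562 cells at 2×10^6 cells/mL. Aliquots were heated for 3 min across 48°C-58°C, pooled, and extracted in PBS with 0.5% NP-40 at 4°C; the supernatant after 21,000xg for 90 min was soluble protein. This was quantified by TMTpro 16plex LC-MS/MS with channel sums equalised, and thermal stability was reported relative to control samples from duplicates, on a log2 fold-change scale.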

Protein sequences, listed by entry. Tags and fused reporters are not part of them. Lines headed by an entry give the natural chain unless they say otherwise; changes in a name come on top.
UniProt O14791: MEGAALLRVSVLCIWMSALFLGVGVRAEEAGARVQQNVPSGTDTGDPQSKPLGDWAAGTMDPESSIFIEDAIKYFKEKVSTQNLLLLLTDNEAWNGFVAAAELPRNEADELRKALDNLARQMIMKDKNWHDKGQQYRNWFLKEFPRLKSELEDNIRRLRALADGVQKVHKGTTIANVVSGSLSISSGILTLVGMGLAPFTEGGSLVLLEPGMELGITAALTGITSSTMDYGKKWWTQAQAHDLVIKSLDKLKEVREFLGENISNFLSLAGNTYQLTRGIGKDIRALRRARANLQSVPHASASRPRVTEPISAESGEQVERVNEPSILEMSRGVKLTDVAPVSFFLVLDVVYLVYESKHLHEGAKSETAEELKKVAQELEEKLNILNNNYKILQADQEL
UniProt P05090: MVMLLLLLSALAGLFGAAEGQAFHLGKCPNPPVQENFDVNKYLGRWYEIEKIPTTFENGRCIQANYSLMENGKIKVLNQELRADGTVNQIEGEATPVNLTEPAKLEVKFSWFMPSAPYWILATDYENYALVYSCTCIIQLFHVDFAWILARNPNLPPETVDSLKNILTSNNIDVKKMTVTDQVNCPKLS
UniProt P06727: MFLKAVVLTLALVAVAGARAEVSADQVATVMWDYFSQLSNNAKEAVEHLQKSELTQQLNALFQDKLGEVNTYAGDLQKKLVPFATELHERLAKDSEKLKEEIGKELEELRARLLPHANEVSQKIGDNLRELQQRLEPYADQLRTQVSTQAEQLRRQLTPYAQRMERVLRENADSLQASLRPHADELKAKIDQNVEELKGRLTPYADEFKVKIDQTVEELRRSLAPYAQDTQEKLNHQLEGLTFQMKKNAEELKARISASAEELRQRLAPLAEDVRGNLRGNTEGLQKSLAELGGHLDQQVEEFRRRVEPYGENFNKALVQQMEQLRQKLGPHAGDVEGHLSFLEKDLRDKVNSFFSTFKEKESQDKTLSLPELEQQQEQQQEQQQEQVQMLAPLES
UniProt Q6P6B7: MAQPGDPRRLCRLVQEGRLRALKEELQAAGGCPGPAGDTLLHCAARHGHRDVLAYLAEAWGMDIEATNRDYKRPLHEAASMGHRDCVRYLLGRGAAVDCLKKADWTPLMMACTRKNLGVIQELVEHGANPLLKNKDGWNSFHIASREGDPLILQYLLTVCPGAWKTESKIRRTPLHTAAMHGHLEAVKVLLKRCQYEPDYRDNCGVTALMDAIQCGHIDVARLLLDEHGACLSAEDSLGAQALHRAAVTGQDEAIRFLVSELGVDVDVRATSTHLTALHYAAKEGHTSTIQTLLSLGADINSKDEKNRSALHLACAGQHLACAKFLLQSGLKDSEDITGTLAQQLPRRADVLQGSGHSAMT
UniProt Q9UNK9: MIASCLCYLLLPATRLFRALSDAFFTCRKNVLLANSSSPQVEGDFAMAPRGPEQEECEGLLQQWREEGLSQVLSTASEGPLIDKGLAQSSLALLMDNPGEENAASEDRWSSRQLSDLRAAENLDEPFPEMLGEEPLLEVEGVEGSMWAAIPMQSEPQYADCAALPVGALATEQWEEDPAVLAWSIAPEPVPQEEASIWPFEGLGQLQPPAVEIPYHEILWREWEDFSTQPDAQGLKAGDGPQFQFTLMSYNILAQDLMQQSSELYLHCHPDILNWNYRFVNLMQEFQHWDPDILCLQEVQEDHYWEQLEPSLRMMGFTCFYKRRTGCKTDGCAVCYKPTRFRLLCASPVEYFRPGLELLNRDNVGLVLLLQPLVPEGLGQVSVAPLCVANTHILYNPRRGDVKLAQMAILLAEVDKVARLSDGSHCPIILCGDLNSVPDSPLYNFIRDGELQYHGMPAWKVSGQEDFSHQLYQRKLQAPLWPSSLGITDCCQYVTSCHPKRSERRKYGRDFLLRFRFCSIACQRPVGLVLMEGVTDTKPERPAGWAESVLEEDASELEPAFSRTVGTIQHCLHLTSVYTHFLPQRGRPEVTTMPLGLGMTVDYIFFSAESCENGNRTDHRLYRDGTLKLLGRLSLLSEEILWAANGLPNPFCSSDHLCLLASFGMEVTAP
UniProt P15514, whole entry, looked up: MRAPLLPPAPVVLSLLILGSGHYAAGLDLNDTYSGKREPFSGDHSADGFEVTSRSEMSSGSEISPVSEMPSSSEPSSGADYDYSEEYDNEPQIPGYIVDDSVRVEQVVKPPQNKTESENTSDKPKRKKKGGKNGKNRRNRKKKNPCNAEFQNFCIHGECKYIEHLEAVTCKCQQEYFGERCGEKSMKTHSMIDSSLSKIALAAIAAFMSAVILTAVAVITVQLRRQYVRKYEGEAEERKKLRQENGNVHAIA
UniProt Q96NW4, whole entry, looked up: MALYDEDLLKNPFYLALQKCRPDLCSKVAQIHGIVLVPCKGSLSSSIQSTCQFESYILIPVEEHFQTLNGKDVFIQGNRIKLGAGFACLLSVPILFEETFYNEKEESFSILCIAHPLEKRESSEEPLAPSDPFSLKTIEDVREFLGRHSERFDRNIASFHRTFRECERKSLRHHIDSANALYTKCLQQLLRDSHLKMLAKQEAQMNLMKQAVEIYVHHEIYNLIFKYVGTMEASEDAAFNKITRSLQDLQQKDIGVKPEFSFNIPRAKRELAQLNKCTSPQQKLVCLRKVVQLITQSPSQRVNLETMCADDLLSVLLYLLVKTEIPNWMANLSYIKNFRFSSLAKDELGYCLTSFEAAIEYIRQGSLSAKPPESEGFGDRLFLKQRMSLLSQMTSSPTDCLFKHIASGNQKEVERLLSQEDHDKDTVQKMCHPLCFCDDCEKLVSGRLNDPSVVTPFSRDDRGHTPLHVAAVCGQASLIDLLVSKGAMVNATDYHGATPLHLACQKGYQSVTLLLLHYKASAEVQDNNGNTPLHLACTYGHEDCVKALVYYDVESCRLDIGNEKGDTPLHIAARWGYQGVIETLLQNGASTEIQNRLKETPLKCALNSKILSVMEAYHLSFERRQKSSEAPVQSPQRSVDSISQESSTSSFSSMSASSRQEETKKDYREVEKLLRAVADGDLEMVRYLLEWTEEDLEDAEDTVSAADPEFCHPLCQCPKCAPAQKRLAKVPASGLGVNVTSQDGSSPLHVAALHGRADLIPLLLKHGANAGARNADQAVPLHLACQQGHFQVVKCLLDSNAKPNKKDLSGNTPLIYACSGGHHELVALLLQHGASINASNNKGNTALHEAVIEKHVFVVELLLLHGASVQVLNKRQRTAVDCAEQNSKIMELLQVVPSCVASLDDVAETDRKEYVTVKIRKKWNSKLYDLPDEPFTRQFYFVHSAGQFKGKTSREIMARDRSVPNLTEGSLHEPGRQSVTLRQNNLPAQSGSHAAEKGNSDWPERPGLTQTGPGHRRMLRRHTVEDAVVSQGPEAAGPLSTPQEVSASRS
UniProt P53677: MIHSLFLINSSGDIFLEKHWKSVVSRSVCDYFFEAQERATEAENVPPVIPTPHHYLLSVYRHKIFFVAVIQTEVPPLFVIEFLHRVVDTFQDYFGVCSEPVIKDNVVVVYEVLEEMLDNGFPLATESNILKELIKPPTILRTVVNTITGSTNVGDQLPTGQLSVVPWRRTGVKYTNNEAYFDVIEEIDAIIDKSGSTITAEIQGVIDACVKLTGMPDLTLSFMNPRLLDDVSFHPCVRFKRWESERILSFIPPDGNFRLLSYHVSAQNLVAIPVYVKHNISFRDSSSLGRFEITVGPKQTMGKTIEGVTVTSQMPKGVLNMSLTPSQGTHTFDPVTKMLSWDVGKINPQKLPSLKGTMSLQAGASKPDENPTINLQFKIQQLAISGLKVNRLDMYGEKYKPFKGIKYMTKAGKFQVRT
UniProt P25054, whole entry, looked up: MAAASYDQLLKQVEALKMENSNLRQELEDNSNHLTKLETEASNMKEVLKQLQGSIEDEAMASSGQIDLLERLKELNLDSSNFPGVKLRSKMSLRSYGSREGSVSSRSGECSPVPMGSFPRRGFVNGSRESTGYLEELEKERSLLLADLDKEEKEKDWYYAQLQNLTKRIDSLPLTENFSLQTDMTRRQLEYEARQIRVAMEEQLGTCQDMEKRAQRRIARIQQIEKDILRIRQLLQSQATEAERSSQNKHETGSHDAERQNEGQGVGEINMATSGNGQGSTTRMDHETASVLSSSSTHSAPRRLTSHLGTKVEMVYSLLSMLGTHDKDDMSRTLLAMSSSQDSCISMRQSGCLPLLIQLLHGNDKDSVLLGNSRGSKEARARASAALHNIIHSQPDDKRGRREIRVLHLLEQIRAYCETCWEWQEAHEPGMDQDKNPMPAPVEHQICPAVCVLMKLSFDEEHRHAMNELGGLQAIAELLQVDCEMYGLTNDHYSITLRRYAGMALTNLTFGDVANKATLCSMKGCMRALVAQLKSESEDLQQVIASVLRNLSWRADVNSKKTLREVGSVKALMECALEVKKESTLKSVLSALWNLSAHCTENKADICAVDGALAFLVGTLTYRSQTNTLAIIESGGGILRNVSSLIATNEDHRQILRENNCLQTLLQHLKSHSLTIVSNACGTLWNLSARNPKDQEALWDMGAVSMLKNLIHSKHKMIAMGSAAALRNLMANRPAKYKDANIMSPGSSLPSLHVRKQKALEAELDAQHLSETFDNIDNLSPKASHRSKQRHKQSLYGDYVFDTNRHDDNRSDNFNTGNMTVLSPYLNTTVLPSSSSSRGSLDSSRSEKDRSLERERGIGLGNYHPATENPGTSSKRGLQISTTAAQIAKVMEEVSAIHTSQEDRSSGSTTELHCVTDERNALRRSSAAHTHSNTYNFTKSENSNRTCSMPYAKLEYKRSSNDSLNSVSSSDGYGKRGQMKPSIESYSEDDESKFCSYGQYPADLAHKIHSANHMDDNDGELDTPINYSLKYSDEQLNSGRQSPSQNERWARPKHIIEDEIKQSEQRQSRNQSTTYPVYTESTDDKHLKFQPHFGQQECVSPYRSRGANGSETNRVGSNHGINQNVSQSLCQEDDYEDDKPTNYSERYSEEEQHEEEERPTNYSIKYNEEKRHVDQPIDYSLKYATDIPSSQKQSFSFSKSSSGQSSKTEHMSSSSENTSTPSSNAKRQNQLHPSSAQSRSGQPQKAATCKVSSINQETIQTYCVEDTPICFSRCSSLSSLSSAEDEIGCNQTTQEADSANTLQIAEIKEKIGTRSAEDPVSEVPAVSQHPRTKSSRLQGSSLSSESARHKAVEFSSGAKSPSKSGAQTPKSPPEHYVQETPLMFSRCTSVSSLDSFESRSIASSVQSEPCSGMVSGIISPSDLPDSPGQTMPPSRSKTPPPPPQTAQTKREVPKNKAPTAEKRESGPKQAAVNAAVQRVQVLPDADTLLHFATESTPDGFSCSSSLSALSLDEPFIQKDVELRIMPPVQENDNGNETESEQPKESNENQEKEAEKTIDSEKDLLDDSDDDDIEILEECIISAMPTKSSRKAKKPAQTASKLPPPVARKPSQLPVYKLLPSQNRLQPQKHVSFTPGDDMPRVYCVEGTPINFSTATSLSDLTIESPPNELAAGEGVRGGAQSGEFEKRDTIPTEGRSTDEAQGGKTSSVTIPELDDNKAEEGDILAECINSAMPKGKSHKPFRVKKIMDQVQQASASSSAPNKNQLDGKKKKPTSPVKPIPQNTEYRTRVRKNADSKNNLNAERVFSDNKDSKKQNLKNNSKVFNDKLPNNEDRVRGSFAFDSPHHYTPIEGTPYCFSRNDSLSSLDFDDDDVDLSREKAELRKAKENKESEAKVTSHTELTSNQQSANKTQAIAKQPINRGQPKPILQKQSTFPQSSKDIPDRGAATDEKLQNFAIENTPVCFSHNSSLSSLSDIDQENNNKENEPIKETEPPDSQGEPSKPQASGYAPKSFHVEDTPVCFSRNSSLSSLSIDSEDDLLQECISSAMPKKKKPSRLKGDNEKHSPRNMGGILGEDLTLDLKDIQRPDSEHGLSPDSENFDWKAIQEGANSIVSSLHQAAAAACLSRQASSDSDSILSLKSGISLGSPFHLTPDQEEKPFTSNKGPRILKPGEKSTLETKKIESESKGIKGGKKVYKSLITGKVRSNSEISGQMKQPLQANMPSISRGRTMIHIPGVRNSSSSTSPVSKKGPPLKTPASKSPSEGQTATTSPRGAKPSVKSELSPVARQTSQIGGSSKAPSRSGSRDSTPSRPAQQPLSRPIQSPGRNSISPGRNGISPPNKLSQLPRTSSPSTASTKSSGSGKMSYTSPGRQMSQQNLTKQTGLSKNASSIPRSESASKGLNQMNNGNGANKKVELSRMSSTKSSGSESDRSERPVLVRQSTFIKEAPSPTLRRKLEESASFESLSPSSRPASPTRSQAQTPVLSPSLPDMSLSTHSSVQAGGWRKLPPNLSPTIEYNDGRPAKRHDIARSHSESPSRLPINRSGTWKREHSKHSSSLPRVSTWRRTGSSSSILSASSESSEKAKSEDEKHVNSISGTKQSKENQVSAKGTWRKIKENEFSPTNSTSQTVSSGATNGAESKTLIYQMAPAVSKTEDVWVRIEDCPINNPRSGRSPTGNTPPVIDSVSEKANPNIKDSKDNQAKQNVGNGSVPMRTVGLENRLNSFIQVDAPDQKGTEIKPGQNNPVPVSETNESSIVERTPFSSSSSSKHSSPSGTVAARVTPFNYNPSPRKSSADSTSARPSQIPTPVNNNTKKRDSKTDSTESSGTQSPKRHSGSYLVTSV

[1] = compound: C[C@H](C1=CC=C(C=C1)C(=O)NC2=C3C=CNC3=NC=C2)N
Procedure, shortened: as §1

duvelisib = compound: C[C@H](Nc1ncnc2nc[nH]c12)c1cc2cccc(Cl)c2c(=O)n1-c1ccccc1 [duvelisib]
Procedure, shortened: as §1

gandotinib = compound: Cc1cc(Nc2cc(CN3CCOCC3)c3nc(C)c(Cc4ccc(Cl)cc4F)n3n2)n[nH]1 [gandotinib]
Procedure, shortened: as §1

tozasertib = compound: Cc1cc(Nc2cc(N3CCN(C)CC3)nc(Sc3ccc(NC(=O)C4CC4)cc3)n2)n[nH]1 [tozasertib]
Procedure, shortened: as §1

[2] = compound: Cc1cc(SCc2sc(-c3ccc(C(F)(F)F)cc3)nc2C)ccc1OCC(=O)O
Procedure, shortened: as §1

doramapimod = compound: Cc1ccc(-n2nc(C(C)(C)C)cc2NC(=O)Nc2ccc(OCCN3CCOCC3)c3ccccc23)cc1 [doramapimod]
Procedure, shortened: as §1

ispinesib = compound: Cc1ccc(C(=O)N(CCCN)[C@@H](c2nc3cc(Cl)ccc3c(=O)n2Cc2ccccc2)C(C)C)cc1 [ispinesib]
Procedure, shortened: as §1

bafetinib = compound: Cc1ccc(NC(=O)c2ccc(CN3CC[C@H](N(C)C)C3)c(C(F)(F)F)c2)cc1Nc1nccc(-c2cncnc2)n1 [bafetinib]
Procedure, shortened: as §1

[3] = compound: Cc1cccc(CC(=O)N2CCc3c2ccc(-c2cn(C)c4ncnc(N)c24)c3F)n1
Procedure, shortened: as §1

nilotinib = compound: Cc1cn(-c2cc(NC(=O)c3ccc(C)c(Nc4nccc(-c5cccnc5)n4)c3)cc(C(F)(F)F)c2)cn1 [nilotinib]
Procedure, shortened: as §1

[4] = compound: Cc1nc(Nc2n[nH]c3c2CN(C(=O)N[C@H](CN(C)C)c2ccccc2)C3(C)C)c2sccc2n1
Procedure, shortened: as §1

dasatinib = compound: Cc1nc(Nc2ncc(C(=O)Nc3c(C)cccc3Cl)s2)cc(N2CCN(CCO)CC2)n1 [dasatinib]
Procedure, shortened: as §1

[5] = compound: Cc1ncc(-c2ccnc(Nc3ccc(S(C)(=O)=O)cc3)n2)n1C(C)C
Procedure, shortened: as §1

[6] = compound: Cn1cc(-c2ccc3c(c2)CCN3C(=O)Cc2cccc(C(F)(F)F)c2)c2c(N)ncnc21
Procedure, shortened: as §1

[7] = compound: Cn1cc(-c2ccc3nnc(C(F)(F)c4ccc5ncccc5c4)n3n2)cn1
Procedure, shortened: as §1

tipifarnib = compound: Cn1cncc1[C@@](N)(c1ccc(Cl)cc1)c1ccc2c(c1)c(-c1cccc(Cl)c1)cc(=O)n2C [tipifarnib]
Procedure, shortened: as §1

[8] = compound: C[C@@H]1COCCN1C2=NC(=NC(=C2)C3(CC3)S(=O)(=O)C)C4=C5C=CNC5=CC=C4
Procedure, shortened: as §1

[9] = compound: CS(=O)(=O)c1ccc(-c2cnc(N)c(C(=O)Nc3ccccc3)n2)cc1
Procedure, shortened: as §1

mubritinib = compound: FC(F)(F)c1ccc(/C=C/c2nc(COc3ccc(CCCCn4ccnn4)cc3)co2)cc1 [mubritinib]
Procedure, shortened: as §1

Measured: log2 fold change

APPBP2 (UniProt Q92624)
inactive: crizotinib -0.108 | [1] 0.008 | duvelisib -0.09 | gandotinib 0.101 | tozasertib 0.061 | [2] -0.09 | doramapimod -0.114 | ispinesib 0.063 | bafetinib -0.089 | [3] -0.042 | nilotinib -0.132 | [4] 0.019 | dasatinib -0.078 | [5] 0.04 | [6] -0.063 | [7] -0.102 | tipifarnib -0.174

APBA2 (UniProt Q99767)
inactive: [8] 0.004

ANXA2 (UniProt H0YMT9)
inactive: crizotinib 0.084 | [8] 0.121 | duvelisib 0.43 | [2] -0.13 | doramapimod -0.011 | bafetinib 0.078 | dasatinib -0.052

APOL1 isoform 2 (UniProt O14791)
inactive: [1] 0.27 | tozasertib 0.08 | bafetinib 0.006 | nilotinib 0.019 | [4] -0.14 | [5] 0.103 | [6] -0.071

APOD (UniProt P05090)
inactive: [9] 0.039 | [1] 0.029 | tozasertib 0.419 | nilotinib 0.089 | [4] -0.097 | [5] 0.579 | [6] 0.21 | tipifarnib -0.014 | mubritinib -0.119

ARHGAP22 isoform 2 (UniProt Q7Z5H3)
inactive: [9] 0.1 | gandotinib 0.431 | tozasertib -0.291 | ispinesib 0.035 | [3] 0.008 | [7] 0.008 | tipifarnib -0.06

APP (UniProt P05067)
inactive: [9] -0.08 | [8] -0.078 | tozasertib 0.14 | ispinesib -0.019 | nilotinib 0.119 | [4] -0.246 | [5] -0.019 | [7] -0.048 | tipifarnib 0.058 | mubritinib 0.067

ARHGAP35 (UniProt Q9NRY4)
inactive: crizotinib 0.058 | [8] -0.101 | [1] 0.183 | duvelisib -0.181 | gandotinib -0.144 | tozasertib 0.064 | [2] 0.069 | doramapimod -0.027 | ispinesib -0.212 | [3] -0.089 | dasatinib -0.016 | [6] -0.024 | [7] -0.081 | tipifarnib 0.053 | mubritinib -0.186

ANKRD13C (UniProt Q8N6S4)
inactive: [8] -0.053 | [1] 0.436 | tozasertib -0.05 | [6] -0.224

ANKLE2 (UniProt Q86XL3)
inactive: crizotinib -0.126 | doramapimod 0.055 | tipifarnib 0.131

ARID4B (UniProt Q4LE39)
inactive: tozasertib 0.229 | mubritinib -0.085

ARID1B isoform 3 (UniProt Q8NFD5)
inactive: ispinesib -0.225 | bafetinib 0.112 | [7] 0.277

ANKRD36 (UniProt A6QL64)
inactive: [9] 0.069 | [8] 0.023 | duvelisib 0.116 | gandotinib 0.033 | tozasertib 0.015 | [2] 0.044 | [3] -0.519 | dasatinib -0.005 | mubritinib -0.153

APOA4 (UniProt P06727)
inactive: [8] 0.1 | tozasertib -0.055 | ispinesib -0.053 | bafetinib -0.062 | nilotinib 0.173 | [4] -0.046 | [5] 0.233 | [7] -0.1 | mubritinib 0

ANKRD16 (UniProt Q6P6B7)
inactive: [9] 0.19 | [8] -0.048 | bafetinib -0.095 | tipifarnib 0.2 | mubritinib 0.185

ANGEL1 (UniProt Q9UNK9)
inactive: crizotinib -0.058 | doramapimod -0.028 | ispinesib 0.27 | bafetinib 0.015 | [7] -0.063

APOBEC3F (UniProt Q8IUX4)
inactive: crizotinib 0.138 | [8] -0.478 | [1] 0.145 | duvelisib -0.093 | [2] 0 | doramapimod 0.242 | ispinesib -0.228 | bafetinib -0.237 | dasatinib -0.055 | [6] -0.276 | [7] -0.041 | tipifarnib 0.208

AP1G2 (UniProt O75843)
inactive: [1] 0.489 | duvelisib -0.108 | [2] 0.029 | ispinesib -0.245 | dasatinib 0.086 | [6] -0.368 | [7] 0 | tipifarnib -0.269

ANKRD26 (UniProt Q9UPS8)
inactive: [9] -0.026 | [1] -0.008 | gandotinib -0.006 | tozasertib 0.113 | ispinesib -0.042 | [3] -0.042 | nilotinib -0.039 | [4] 0.069 | [5] 0.034 | [6] 0.126 | [7] 0.059 | tipifarnib -0.021 | mubritinib -0.094

ARHGAP5 (UniProt Q13017)
inactive: [8] 0.039 | [1] 0.13 | tozasertib 0.04 | ispinesib -0.057 | bafetinib 0.006 | [6] -0.093 | [7] 0.139

APOC2 (UniProt P02655)
inactive: crizotinib 0.008 | [1] 0.049 | duvelisib 0.13 | gandotinib -0.202 | [2] 0.095 | doramapimod -0.016 | [3] 0.026 | nilotinib 0.305 | [4] -0.072 | dasatinib -0.038 | [5] -0.078 | [6] 0.201 | mubritinib 0.003

ARHGAP25 isoform 4 (UniProt P42331)
inactive: [8] -0.066 | [1] 0.309 | gandotinib -0.056 | [2] 0.299 | bafetinib -0.035 | [3] -0.089 | nilotinib 0.28 | [4] -0.276 | dasatinib -0.421 | [5] 0.078 | [6] -0.009 | mubritinib 0.266

AREG (UniProt P15514)
inactive: crizotinib -0.226 | duvelisib 0.123 | [2] 0.322 | doramapimod -0.04 | dasatinib 0.025 | tipifarnib 0.187

ANKRD11 (UniProt Q6UB99)
inactive: [9] 0.142 | ispinesib -0.422 | bafetinib -0.059 | nilotinib -0.284 | [4] -0.058 | [5] -0.106 | [7] 0.102 | mubritinib 0.148

APOC3 (UniProt P02656)
inactive: [9] 0.033 | [8] 0.355 | [1] 0.358 | duvelisib 0.264 | tozasertib 0.071 | [2] 0.044 | ispinesib 0.112 | bafetinib 0.153 | nilotinib 0.108 | [4] 0.183 | dasatinib 0.119 | [5] -0.042 | [6] 0.031 | [7] 0 | tipifarnib 0.117 | mubritinib 0.066

ANKRD27 (UniProt Q96NW4)
inactive: crizotinib -0.358 | doramapimod 0.052 | ispinesib -0.52 | [7] -0.264

AP3M2 (UniProt P53677)
inactive: crizotinib -0.044 | [1] 0.131 | doramapimod 0.074 | bafetinib -0.158 | [6] -0.02 | mubritinib 0.036

ANKRD52 (UniProt Q8NB46)
inactive: crizotinib -0.295 | [8] -0.081 | [1] -0.014 | duvelisib 0.661 | tozasertib 0.226 | [2] 0.11 | doramapimod 0.094 | ispinesib -0.174 | nilotinib 0.072 | [4] -0.053 | dasatinib 0.379 | [5] 0.003 | [6] 0.023 | [7] -0.06 | mubritinib -0.049

ANKIB1 (UniProt Q9P2G1)
inactive: nilotinib 0.126 | [4] 0.192 | [5] 0.088

APH1B (UniProt Q8WW43)
inactive: [9] -0.068 | gandotinib 0.014 | [3] -0.055

APC (UniProt P25054)
inactive: crizotinib -0.369 | [8] -0.02 | [1] -0.008 | duvelisib -0.164 | tozasertib -0.002 | [2] -0.014 | doramapimod -0.09 | ispinesib -0.154 | bafetinib 0.059 | dasatinib 0.008 | [6] -0.014 | [7] 0.021

Reprinted from the entries so far (two entries):
ANGEL1 (UniProt Q9UNK9)
inactive: crizotinib -0.058 | doramapimod -0.028 | ispinesib 0.27 | bafetinib 0.015 | [7] -0.063

APOBEC3F (UniProt Q8IUX4)
inactive: crizotinib 0.138 | [8] -0.478 | [1] 0.145 | duvelisib -0.093 | [2] 0 | doramapimod 0.242 | ispinesib -0.228 | bafetinib -0.237 | dasatinib -0.055 | [6] -0.276 | [7] -0.041 | tipifarnib 0.208

Next part

AP5S1 (UniProt Q9NUS5)
inactive: nilotinib -0.059 | [4] 0.007 | [5] 0.051 | mubritinib -0.055

ARHGEF10 (UniProt O15013)
inactive: bafetinib 0.352

ANKH (UniProt Q9HCJ1)
inactive: crizotinib 0.495 | duvelisib 0.164 | gandotinib 0.008 | [2] -0.139 | doramapimod -0.09 | ispinesib -0.258 | [3] -0.356 | nilotinib -0.048 | [4] -0.018 | dasatinib 0.206 | [5] -0.103 | [7] 0.08 | tipifarnib 0.108
